Measured values taken from PubChem BioAssay AID1259415 (National Center for Advancing Translational Sciences (NCATS), 2018).
Values joined by “and” are separate entries in the source; they are usually repeats but may differ in a detail not shown here. Equal values may be shown once. Screen size: about 410,000 compounds; about 18,000 (4.4%) were called active. This list was built around the results that the source calls inconclusive (neither active nor inactive); the mix of calls is not that of the screen. No stated cut-off is given here; in the data, active means activity change below about -60%; inconclusive means no clear call, values can overlap the other calls; inactive means above about -39%.

assay: qHTS Assay for inhibitors of the human cytomegalovirus (HCMV); settings: HFF cells, HCMV-luciferase reporter, 72 h; at 57.5 µM; hits give low values
Summary of the method: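 Cell-based, HFFs, 1000 cells/well, 16 h 37C; cpds in DMSO + HCMV-luc, MOI 1 PFU/cell; 72 h 37C; OneGlo luminescence after 5 min RT; norm. to buffer vs Salinomycin 10uM.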
On the % scale 0 is the no-effect control and ±100 the full control effect.

Row | SMILES | activity change, negative = inhibition
1 | CC(C)CC1CCCCC1OC(=O)C[N+]1(C)CCCCC1 (configuration not stated) | inconclusive: -40.9%
2 | CCOc1ccc(/C=N/Nc2cc(=O)n(C)c(=O)n2C)cc1 | inactive: -15.9%
3 | Cc1ccc(S(=O)(=O)NCC(Nc2cccc(Cl)c2)c2ccccc2)cc1 (configuration not stated) | active: -103%
4 | Cc1c(Cl)cccc1NC(=O)Nc1c(C)n(C)n(-c2ccccc2)c1=O | inactive: -7.05%
5 | COc1ccc(OC)c(NC(=O)COc2coc(CN3CCCc4ccccc43)cc2=O)c1 | inconclusive: -53.3%
6 | O=C(CSc1ncccn1)n1c2c(c3ccccc31)CCCC2 | inconclusive: -42.7%
7 | CCOC(=O)c1c(-c2ccccc2)oc2ccc(OCC(O)CN(C)C)cc12 (configuration not stated) | inactive: -36.8%
8 | COc1ccc(-c2ccccc2NC(=O)C2CCCN(Cc3ccc(C)o3)C2)cc1 (configuration not stated) | inconclusive: -49.7%
9 | CC(=O)Nc1ccc(S(=O)(=O)N2CCCC(C(=O)O)C2)cc1 (configuration not stated) | inconclusive: -49%
10 | CC(=O)N1c2ccc(S(=O)(=O)N3CCCC(C(=O)Nc4cccc(F)c4)C3)cc2CC1C (configuration not stated) | inactive: -31.3%
11 | CN(C)S(=O)(=O)c1cccc(N2C(=O)CC3(CCCCC3)CC2=O)c1 | inconclusive: -45.3%
12 | O=S(=O)(c1ccc(Br)s1)N1CCN(c2ccccn2)CC1 | inconclusive: -46.9%
13 | Clc1cccc2c1Sc1ccccc1CC2N1CCNCC1 (configuration not stated) | inconclusive: -54.8%
14 | Cc1cc(Br)c(NC(=O)CN2CC=C(c3ccccc3)CC2)c(Br)c1 | inconclusive: -56.5%
15 | COc1ccc(OC)c(Nc2nc(NCc3ccco3)nc(N)c2[N+](=O)[O-])c1 | inconclusive: -48.5%
16 | CCOc1ccc(S(=O)(=O)N(CC(=O)Nc2cccnc2)c2ccccc2)cc1 | inconclusive: -50.2%
17 | Cc1c(C(=O)N(C)Cc2nc3ccccc3c(=O)[nH]2)oc2ccccc12 | inactive: 2.79%
18 | CSCCCNC(=S)N1CCc2ccccc2C1 | inconclusive: -44.2%
19 | Cc1cn([C@H]2C=C[C@@H](CO)O2)c(=O)[nH]c1=O | inactive: 11.8% and inactive: 74.7%
20 | COc1ccc2nc(C)cc(SCC(NC(C)=O)C(=O)OC(C)C)c2c1 (configuration not stated) | inconclusive: -40.1%
21 | COc1ccc(CNC(=O)Cn2c(=O)oc3cc(S(=O)(=O)N4CCCCCC4)ccc32)cc1 | inconclusive: 0%
22 | CCCc1cc(C(=O)Nc2cccc3ccccc23)n(C)n1 | inconclusive: -54.7%

Row | SMILES | activity change, negative = inhibition
23 | CC(=NNc1cc(C)c2cc(C)ccc2n1)c1ccccn1 | active: -99.8%
24 | COc1ccc(N2CCN(C(=O)CCc3c(C)nc4c(-c5ccccc5)c(C)nn4c3C)CC2)cc1 | inactive: -1.42%
25 | Cc1ccccc1C(=O)NCC(=O)c1ccccc1 | inactive: 119%
26 | CCCCn1c(=O)n(CC(=O)NCc2ccc(C)cc2)c(=O)c2c1nc(CO)n2CCC | inconclusive: -47.7%
27 | O=C(Nc1nc(-c2nc3ccccc3s2)cs1)c1ccc(S(=O)(=O)N2CCOCC2)cc1 | inconclusive: -53.9%
28 | CN(CC(=O)N1CCN(c2ncccn2)CC1)S(=O)(=O)c1ccc(Cl)cc1 | inconclusive: -44.6%
29 | CC(=O)Nc1ccc(S(=O)(=O)NCC2(N3CCOCC3)CCCCC2)cc1 | inactive: -26%
30 | COc1ccc2cc(C3(C)NC(=O)N(CC(=O)NCC(F)(F)F)C3=O)ccc2c1 (configuration not stated) | inactive: 10.8%
31 | COc1ccccc1C(=O)Nc1ccc(-c2nnn(CC(=O)NCc3ccco3)n2)cc1 | inconclusive: -47.1%
32 | C=CCn1c(SCC(=O)NCC)nnc1-c1cc2c(s1)CCC(CC)C2 (configuration not stated) | active: -67.9%
33 | C#CCOCCOCCOCCNc1nc(N2CCN(C(=O)CCCCCCCCCCNC(=O)[C@@H]([C@H](C)O)n3cc(C)nn3)CC2)nc(N2CCN(C(=O)CCCCCCCCCCNC(=O)[C@@H]([C@H](C)O)n3cc(C)nn3)CC2)n1 | active: -74.1%
34 | COc1ccc(NC(=O)NC2COc3ccccc3C2)c(OC)c1 (configuration not stated) | inactive: 11.4%
35 | O=C(COc1ccc2ccc(=O)oc2c1)N1CCN(c2ccc(F)cc2)CC1 | inconclusive: -45.1%
36 | CCOc1ccccc1C(=O)N1CCN(c2cccc(Cl)c2)CC1 | active: -85.1%
37 | Cc1nn(Cc2ccccc2)c(Cl)c1C(=O)OCC#N | inconclusive: -45.7%
38 | COc1ccc(-c2nn(-c3ccccc3)cc2C(=O)N2CCN(S(=O)(=O)c3ccccc3[N+](=O)[O-])CC2)cc1 | inconclusive: -47%
39 | Cc1oc(-c2cc(F)ccc2F)nc1CN1CCCN(C(=O)c2ccco2)CC1 | inconclusive: -42.4%
40 | CCc1ccc(CNC(=O)C(=O)NCC2CCCO2)cc1 (configuration not stated) | inconclusive: -50.5%
41 | Cc1ccc(NC(=O)Nc2ccc3c(c2)OCO3)c(Br)c1 | inconclusive: -54.7%
42 | c1ccc(N=NN2CCOCC2)cc1 | inconclusive: -40.2%
43 | C#Cc1cc(N2CCN(C(=O)c3ccoc3)CC2)n2nc(-c3cccc(Cl)c3)cc2n1 | active: -102%
44 | C=CCNC(=O)c1ccc(-c2nc(-c3ccc(Cl)cc3Cl)cs2)cc1 | inconclusive: -48.8%

Row | SMILES | activity change, negative = inhibition
45 | Cc1ccc2c(C)c(C(=O)Nc3ccc(S(N)(=O)=O)cc3)oc2c1C | inconclusive: -59.1%
46 | COc1ccccc1C(=O)Nc1c(-c2ccccc2)nc2ccccn12 | inconclusive: -42.8%
47 | O=C(c1cccc2ccccc12)N1CCN(c2ccc([N+](=O)[O-])c(NCc3ccco3)c2)CC1 | inconclusive: -58.3%
48 | O=C(Cc1ccc(Cl)cc1)Nc1ccccc1Sc1ccccc1 | inconclusive: -54.5%
49 | Cc1sc(NC(=O)CN2CCCC2)nc1-c1ccc2c(c1)CCN2C(=O)c1cccc(F)c1 | inactive: -3.58%
50 | O=C(Oc1ccccc1C(=O)Nc1ccccc1)c1ccccc1Br | active: -66.2%
51 | O=[N+]([O-])c1ccc2nc(/C=C/c3ccc(Cl)cc3)[nH]c2c1 | active: -85.8%
52 | COc1cc(C(C)=O)ccc1OCC(=O)N1CCC(Cc2ccccc2)CC1 | inconclusive: -43.4%
53 | CCCCOc1cccc(C(=O)Nc2ccc(S(=O)(=O)Nc3nnc(CC)s3)cc2)c1 | inactive: 55.1%
54 | CCC(=O)Nc1cccc(C(=O)/C=C/c2ccc(F)cc2)c1 | active: -99.1%
55 | Cc1c(C(=O)Nc2ccc(-c3nnc4n3CCCCC4)cc2)oc2c1ccc1ccccc12 | inconclusive: -42.6%
56 | Cc1nnc(NC(=O)c2ccncc2)s1 | inactive: -18.1%
57 | CCOC(=O)N1CCc2c(sc(NCc3sccc3C)c2C(=O)Nc2cc(OC)ccc2OC)C1 | inconclusive: -43.1%
58 | COc1cccc(C(=O)Nc2ccc3c(c2)C(=O)N(CC2CCCO2)C3=O)c1 (configuration not stated) | inconclusive: -47.7%
59 | O=C(COC(=O)/C=C/c1ccccc1[N+](=O)[O-])Nc1ccc(S(=O)(=O)N2CCOCC2)cc1 | inactive: 86.7%
60 | COc1cccc(NC(=O)CSc2cc(=O)n(C)c3ccc(Cl)cc23)c1 | inconclusive: -49.5%
61 | Cn1c(=O)c2cc(NC(=O)NCCc3ccccc3)ccc2n1Cc1cccc(C(F)(F)F)c1 | inconclusive: -41.3%
62 | O=[N+]([O-])c1oc2ccc3ccccc3c2c1CCO | active: -102%
63 | COc1ccc(C)cc1NC(=O)CSc1nnnn1C1CCCC1 | inconclusive: -46.5%
64 | COc1cc(CC(=O)NCC2CCCCC2)cc(OC)c1OC | inconclusive: -53.7%
65 | Cc1ccc(NC(=O)c2cc(-c3cc(C)c(C)cc3O)n[nH]2)cc1C | inactive: -39.8%
66 | N#C/C(=C\c1ccccn1)c1ccccn1 | active: -73.6%

Row | SMILES | activity change, negative = inhibition
67 | CC(NC(=O)CSc1n[nH]c(-c2ccccc2Cl)n1)c1nc2ccccc2n1C (configuration not stated) | inactive: -12.3%
68 | COC(=O)c1ccc(NC(=O)CCc2c(C)nc3c(c(C)nn3-c3ccc(C)cc3)c2C)cc1 | inactive: -19.7%
69 | OC(CCN1CCC2(CC1)OCCO2)C(F)(F)F (configuration not stated) | inconclusive: -49.2%
70 | CCOC(=O)C1=C(C)OC(N)=C(C#N)C1c1cc2c(cc1[N+](=O)[O-])OCO2 (configuration not stated) | inconclusive: -52.1%
71 | CCCCCCCCCCOC(=O)NC1CCS(=O)(=O)C1 (configuration not stated) | inconclusive: -48.7%
72 | S=c1[nH]c2ccccc2n1Cc1ccccc1 | inconclusive: -40.9%
73 | OC(c1ccco1)c1nc(-c2ccc(F)c(Cl)c2)cs1 (configuration not stated) | active: -64.7%
74 | Cc1nn2c3c(cnc2c1-c1ccccc1)C(=O)CC(c1ccccc1)C3 (configuration not stated) | inconclusive: -59.1%
75 | COc1ccc(NC(=O)Nc2cccc(Cl)c2Cl)c(OC)n1 | active: -70%
76 | COc1ccc(NC(=O)C2CCCN(C(=O)Nc3cccc(OC)c3)C2)cc1 (configuration not stated) | inconclusive: -57.4%
77 | Cc1ccc(-n2c(SCC(=O)NCC3CCCO3)nnc2-c2ccoc2C)cc1 (configuration not stated) | inactive: -33.6%
78 | Cc1cc2c(cc1C)NC(CC(=O)NCc1ccccc1)C(=O)N2 (configuration not stated) | active: -109%
79 | COC(=O)c1cc(=O)c2c(C)nc(C(Cl)(Cl)Cl)nc2[nH]1 | active: -99.8%
80 | Cc1ccsc1/C=N/NC(=O)CC(=O)NCC(C)C | inactive: -6.98%
81 | CNC(=O)c1cc(C(=O)c2ccc(F)cc2C(F)(F)F)c[nH]1 | inactive: -6.62%
82 | COc1ccc(-n2nnnc2C(c2ccccc2)N2CCN(C/C=C/c3ccccc3)CC2)cc1 (configuration not stated) | inactive: -39.4%
83 | CCn1c(SCc2ccc(C#N)cc2)nnc1-c1cccc(Cl)c1 | inconclusive: -42.2%
84 | Cc1ccc(NC(=O)CCc2c(C)nc3c(-c4ccccc4)c(C)nn3c2C)c(C)c1 | inactive: 4.68%
85 | CSc1ccc(CCNC(=O)c2cc(-c3ccccc3)c(N3CCOCC3)s2)cc1 | inconclusive: -52.4%
86 | Ic1ccc(N2CCN(Cc3c[nH]c4ncccc34)CC2)cc1 | inconclusive: -52.1%
87 | O=[N+]([O-])c1cccc2c([As](=O)(O)O)cccc12 | active: -73.5%
